Experimental data published in publication doi:10.1101/2021.02.26.433008.
No constants are given. Whether binding was seen depends on the method and setting. Binding seen in cells or lysates may run through a third protein. Some binding calls cover weakened binding; strength is not graded here.

By UniProt entry, the sequences of proteins in these tests, tags left out. Residues count along the entry.
UniProt P03186, residues 1-235: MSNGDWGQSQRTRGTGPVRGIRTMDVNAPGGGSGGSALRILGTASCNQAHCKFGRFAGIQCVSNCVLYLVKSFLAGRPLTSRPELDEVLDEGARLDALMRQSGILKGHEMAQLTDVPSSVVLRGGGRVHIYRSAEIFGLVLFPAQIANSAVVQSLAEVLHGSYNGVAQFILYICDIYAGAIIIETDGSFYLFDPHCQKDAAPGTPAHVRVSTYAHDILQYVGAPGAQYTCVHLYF
UniProt P11387: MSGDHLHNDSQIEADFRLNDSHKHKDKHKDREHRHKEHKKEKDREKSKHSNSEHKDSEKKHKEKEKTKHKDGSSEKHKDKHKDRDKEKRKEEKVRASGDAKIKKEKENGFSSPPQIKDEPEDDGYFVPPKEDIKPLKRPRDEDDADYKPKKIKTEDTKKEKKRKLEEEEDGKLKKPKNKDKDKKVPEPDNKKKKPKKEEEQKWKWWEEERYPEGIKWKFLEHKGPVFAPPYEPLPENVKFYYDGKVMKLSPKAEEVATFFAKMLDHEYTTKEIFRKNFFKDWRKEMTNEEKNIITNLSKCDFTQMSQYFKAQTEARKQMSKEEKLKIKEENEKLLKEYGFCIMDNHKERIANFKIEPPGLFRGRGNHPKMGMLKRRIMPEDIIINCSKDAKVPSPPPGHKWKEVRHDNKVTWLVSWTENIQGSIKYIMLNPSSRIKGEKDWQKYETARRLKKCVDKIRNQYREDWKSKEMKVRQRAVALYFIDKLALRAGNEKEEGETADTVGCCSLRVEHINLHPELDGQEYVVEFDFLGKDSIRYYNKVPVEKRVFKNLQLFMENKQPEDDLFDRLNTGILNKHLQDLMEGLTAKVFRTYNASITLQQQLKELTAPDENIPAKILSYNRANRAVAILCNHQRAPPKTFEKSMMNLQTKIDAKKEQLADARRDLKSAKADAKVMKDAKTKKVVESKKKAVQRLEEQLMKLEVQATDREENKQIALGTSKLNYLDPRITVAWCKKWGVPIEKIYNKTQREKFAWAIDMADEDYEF
UniProt Q02880: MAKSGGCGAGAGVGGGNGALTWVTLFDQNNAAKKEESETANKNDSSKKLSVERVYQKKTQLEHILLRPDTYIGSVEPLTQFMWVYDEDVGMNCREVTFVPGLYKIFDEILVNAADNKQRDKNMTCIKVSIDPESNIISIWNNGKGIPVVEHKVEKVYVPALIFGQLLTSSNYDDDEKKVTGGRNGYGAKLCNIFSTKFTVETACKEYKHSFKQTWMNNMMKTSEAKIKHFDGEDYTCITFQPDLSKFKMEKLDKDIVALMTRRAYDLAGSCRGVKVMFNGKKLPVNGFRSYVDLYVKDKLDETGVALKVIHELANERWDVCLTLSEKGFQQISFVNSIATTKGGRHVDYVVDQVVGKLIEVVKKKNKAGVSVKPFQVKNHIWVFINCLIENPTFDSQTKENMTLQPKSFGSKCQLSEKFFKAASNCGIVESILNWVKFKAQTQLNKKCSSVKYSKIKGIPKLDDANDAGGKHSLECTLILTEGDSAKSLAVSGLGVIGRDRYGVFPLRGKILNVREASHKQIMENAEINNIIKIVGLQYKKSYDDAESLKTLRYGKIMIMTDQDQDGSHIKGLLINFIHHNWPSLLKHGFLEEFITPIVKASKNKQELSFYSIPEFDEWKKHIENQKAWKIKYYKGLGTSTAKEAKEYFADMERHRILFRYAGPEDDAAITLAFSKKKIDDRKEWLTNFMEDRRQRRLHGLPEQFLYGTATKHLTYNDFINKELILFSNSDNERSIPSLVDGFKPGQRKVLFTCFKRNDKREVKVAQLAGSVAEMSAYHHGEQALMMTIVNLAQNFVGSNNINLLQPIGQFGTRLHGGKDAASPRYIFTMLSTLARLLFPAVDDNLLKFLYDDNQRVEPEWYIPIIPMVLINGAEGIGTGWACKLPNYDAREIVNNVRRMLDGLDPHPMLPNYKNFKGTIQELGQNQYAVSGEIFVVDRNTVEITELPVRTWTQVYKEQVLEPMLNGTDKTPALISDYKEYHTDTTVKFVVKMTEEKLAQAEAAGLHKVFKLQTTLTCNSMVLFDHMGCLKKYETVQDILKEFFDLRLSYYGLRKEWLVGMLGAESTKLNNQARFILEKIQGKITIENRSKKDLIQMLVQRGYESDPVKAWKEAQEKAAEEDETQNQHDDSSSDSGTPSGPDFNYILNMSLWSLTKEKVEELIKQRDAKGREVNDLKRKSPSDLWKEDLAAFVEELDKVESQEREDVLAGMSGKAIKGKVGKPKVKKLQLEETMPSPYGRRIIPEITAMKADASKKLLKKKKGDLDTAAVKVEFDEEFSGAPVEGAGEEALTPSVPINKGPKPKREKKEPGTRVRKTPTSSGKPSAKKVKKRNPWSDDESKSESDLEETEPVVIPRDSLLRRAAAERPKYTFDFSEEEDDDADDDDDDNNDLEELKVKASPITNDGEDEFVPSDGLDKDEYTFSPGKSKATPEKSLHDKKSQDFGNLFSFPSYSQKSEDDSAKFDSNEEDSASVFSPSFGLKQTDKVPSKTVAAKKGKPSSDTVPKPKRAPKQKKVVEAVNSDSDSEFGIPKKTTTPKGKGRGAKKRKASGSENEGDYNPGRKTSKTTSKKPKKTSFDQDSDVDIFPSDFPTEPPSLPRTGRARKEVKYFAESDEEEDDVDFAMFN

Molecular target: 3xFLAG-BPLF1 (amino acid 1-235), N-terminal domain of the EBV large tegument protein BPLF1 (Epstein-Barr virus) (UniProt P03186)
Experiment: co-IP

Row | Substance | binding
1 | Topoisomerase I (TOP1), endogenous (from UniProt P11387 1-765) (enzyme) | no binding
2 | Topoisomerase II beta (TOP2β), endogenous (from UniProt Q02880 1-1626) (enzyme) | binds
